Substitutions are numbered along the chain they refer to. These are yes or no findings as the source states them, for the method shown. Binding can be weak; no strength is given.
B1: h48D2 VH4:VL4 (antibody, human IgG1, kappa, L234A L235A, V domains shown)
VH: QVQLQESGPGLVKPSETLSLTCTVSGPSLSHFDITWIRQPPGKGLEWIGTISPGVSTYYASWAKSRFTISVDTSKNQFSLKLTSVTAADTATYYCARGGVGSSWKAFDLWGPGTLVTVSS
VL: ELVMTQSPSSVSASVGDRVTITCQASESISTALAWYQQKPGKAPKLLIYKASTLPSGVPSRFSGSGSGTDFTLTINSLQPEDFATYYCQQGFSSGNVHNAFGGGTKVEIKR
B2: h48D2 VH5:VL4 (antibody, human IgG1, kappa, L234A L235A, V domains shown)
VH: QEQLEESGGGLVKPGGTLSLTCTVSGPSLSHFDITWIRQAPGSGLEWIGTISPGVSTYYASWAKSRVTISVDTSLNTVSLKLSSVTAADTATYFCARGGVGSSWKAFDLWGPGTLVTISS
VL: B1 VL
B3: h48D2 VH5.SK:VL4 (antibody, human IgG1, kappa, L234A L235A, V domains shown)
VH: B2 VH with S43K
VL: B1 VL
B4: h48D2 VH4:VL5 (antibody, human IgG1, kappa, L234A L235A, V domains shown)
VH: B1 VH
VL: APVLTQSPATLEASVGDRVTITCQASESISTALAWYQQKPGQPPKLLIYKASTLPSGVPSRFSGSGSGTEFTLTISDLESDDAATYYCQQGFSSGNVHNAFGGGTEVVVKR
B5: h48D2 VH5.GL:VL4 (antibody, human IgG1, kappa, L234A L235A, V domains shown)
VH: B2 VH with A40P, S43K
VL: B1 VL
B6: h48D2 VH5.AP:VL4 (antibody, human IgG1, kappa, L234A L235A, V domains shown)
VH: B2 VH with A40P
VL: B1 VL
B7: h48D2 VH3:VL3 (antibody, human IgG1, kappa, L234A L235A, V domains shown)
VH: EVQLLESGGGLVLPGGSLRLSCAASGPSLSHFDITWVRQAPGKGLEWVSTISPGVSTYYASWAKSRFTISRDNSKNTLYLQMSSLRAEDTAVYYCARGGVGSSWKAFDLWGLGTTVTVSS
VL: DILLTQTPSVVSASVGDRVTITCQASESISTALAWYQQKPGQAPRLLIYKASTLPSGVPSRFRGSGSGTDFTLTITSLQPEDFATYYCQQGFSSGNVHNAFGGGTRLEIKR
B8: h48D2 VH3:VL4 (antibody, human IgG1, kappa, L234A L235A, V domains shown)
VH: B7 VH
VL: B1 VL
B9: h48D2 VH5:VL3 (antibody, human IgG1, kappa, L234A L235A, V domains shown)
VH: B2 VH
VL: B7 VL
B10: h48D2 VH1:VL3 (antibody, human IgG1, kappa, L234A L235A, V domains shown)
VH: B7 VH with L5E, L13K, S83N, L112R, T115L
VL: B7 VL
B11: h48D2 VH3:VL5 (antibody, human IgG1, kappa, L234A L235A, V domains shown)
VH: B7 VH
VL: B4 VL
B12: h48D2 VH4:VL3 (antibody, human IgG1, kappa, L234A L235A, V domains shown)
VH: B1 VH
VL: B7 VL
B13: h48D2 VH1:VL4 (antibody, human IgG1, kappa, L234A L235A, V domains shown)
VH: B7 VH with L5E, L13K, S83N, L112R, T115L
VL: B1 VL
B14: h48D2 VH1:VL5 (antibody, human IgG1, kappa, L234A L235A, V domains shown)
VH: B7 VH with L5E, L13K, S83N, L112R, T115L
VL: B4 VL
B15: h48D2 VH2:VL2 (antibody, human IgG1, kappa, L234A L235A, V domains shown)
VH: EVQLVESGGALVQPGGSLRLSCIVSGPSLSHFDITWFRQAPGKGLEWVATISPGVSTYYASWAKSRFTISTDTSKNTLFLQMDSLRAEDTAVYYCARGGVGSSWKAFDLWGPGTLVTVSS
VL: QIVLTQSPATLSASVGDRVTITCQASESISTALAWYQQKPGKAPKLLIYKASTLPSGVPSRFSGSGSGTEFTLTISSLQPDDSATYYCQQGFSSGNVHNAFGQGTKLEIKR
B16: h48D2 VH1:VL2 (antibody, human IgG1, kappa, L234A L235A, V domains shown)
VH: B7 VH with L5E, L13K, S83N, L112R, T115L
VL: B15 VL
B17: h48D2 VH1:VL1 (antibody, human IgG1, kappa, L234A L235A, V domains shown)
VH: B7 VH with L5E, L13K, S83N, L112R, T115L
VL: B1 VL with E1D, L2I, V11L, N76S, E108V
B18: h48D2 VH3:VL2 (antibody, human IgG1, kappa, L234A L235A, V domains shown)
VH: B7 VH
VL: B15 VL
B19: h48D2 VH2:VL4 (antibody, human IgG1, kappa, L234A L235A, V domains shown)
VH: B15 VH
VL: B1 VL
B20: h48D2 VH2:VL3 (antibody, human IgG1, kappa, L234A L235A, V domains shown)
VH: B15 VH
VL: B7 VL
B21: h48D2 VH2:VL5 (antibody, human IgG1, kappa, L234A L235A, V domains shown)
VH: B15 VH
VL: B4 VL
B22: h48D2 VH4:VL2 (antibody, human IgG1, kappa, L234A L235A, V domains shown)
VH: B1 VH
VL: B15 VL
B23: h48D2 VH5:VL2 (antibody, human IgG1, kappa, L234A L235A, V domains shown)
VH: B2 VH
VL: B15 VL
B24: h48D2 VH4:VL1 (antibody, human IgG1, kappa, L234A L235A, V domains shown)
VH: B1 VH
VL: B1 VL with E1D, L2I, V11L, N76S, E108V
B25: h48D2 VH3:VL1 (antibody, human IgG1, kappa, L234A L235A, V domains shown)
VH: B7 VH
VL: B1 VL with E1D, L2I, V11L, N76S, E108V
B26: h48D2 VH5:VL1 (antibody, human IgG1, kappa, L234A L235A, V domains shown)
VH: B2 VH
VL: B1 VL with E1D, L2I, V11L, N76S, E108V
B27: h48D2 VH2:VL1 (antibody, human IgG1, kappa, L234A L235A, V domains shown)
VH: B15 VH
VL: B1 VL with E1D, L2I, V11L, N76S, E108V

These binders were tested against hIL1RAP(21-367) (人) (assay: binding ELISA, coated hIL1RAP aa21-367).

| binding | Binder |
| --- | --- |
| binds | B1 |
| binds | B2 |
| binds | B3 |
| binds | B4 |
| binds | B5 |
| binds | B6 |
| binds | B7 |
| binds | B8 |
| binds | B9 |
| binds | B10 |
| binds | B11 |
| binds | B12 |
| binds | B13 |
| binds | B14 |
| binds | B15 |
| binds | B16 |
| binds | B17 |
| binds | B18 |
| binds | B19 |
| binds | B20 |
| binds | B21 |
| binds | B22 |
| binds | B23 |
| binds | B24 |
| binds | B25 |
| binds | B26 |
| binds | B27 |

What follows are binders tested against hIL1RAP(21-367) (人) (assay: BLI (BLItz), protein A sensor).

| binding | Binder |
| --- | --- |
| binds | B1 |
| binds | B2 |
| binds | B4 |
| binds | B5 |
| binds | B7 |
| binds | B8 |
| binds | B9 |
| binds | B10 |
| binds | B11 |
| binds | B12 |
| binds | B13 |
| binds | B14 |
| binds | B15 |
| binds | B16 |
| binds | B17 |
| binds | B18 |
| binds | B19 |
| binds | B20 |
| binds | B21 |
| binds | B22 |
| binds | B23 |
| binds | B24 |
| binds | B25 |
| binds | B26 |
| binds | B27 |

Each binder was assayed against hIL1RAP(21-367) (人) (assay: ELISA on coated IL1RAP orthologs).

| binding | Binder |
| --- | --- |
| binds | B5 |

— patent CN116724055A
